“And” between values parts separate entries of the source, which are not always exact repeats. Equal entries are not always repeated. This is one part of the list. This data set is noisy: repeats of one test often differ as much as different tests do.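 HEK293T cells were given each compound shortly before transfection with a reporter in which red mCherry is followed by the SARS-CoV-2 frameshift element and then GFP in the −1 frame, so GFP appears only after frameshifting.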
Tested on: HEK293T
Test: percent viability (nuclei count) relative to control; higher = more viable cells
Details: 10 µM; 24 h

With `NC(N)=Nc1nc(CSCC/C(N)=N/S(N)(=O)=O)cs1` [famotidine] the percent viability was 37.3% and 61.6%.
`CCN(CC)CCNC(=O)c1c(C)[nH]c(/C=C2\C(=O)Nc3ccc(F)cc32)c1C` [sunitinib] was tested, and the percent viability was 191% and 224%.
With `C#C[C@]1(O)CC[C@H]2[C@@H]3[C@H](C)CC4=C(CCC(=O)C4)[C@H]3CC[C@@]21C` [tibolone] the percent viability was 313% and 168%.
In the case of `CC(COc1ccccc1)NC(C)C(O)c1ccc(O)cc1` (stereo not given) [isoxsuprine], the percent viability was 208% and 162%.
For `CC(C)c1c(C(=O)Nc2ccccc2)c(-c2ccccc2)c(-c2ccc(F)cc2)n1CC[C@@H](O)C[C@@H](O)CC(=O)O` [atorvastatin], the percent viability was 133% and 253%.
`CC(C(=O)O)c1cccc(C(=O)c2ccccc2)c1` (stereo not given) [ketoprofen] was tested, and the percent viability was 258% and 335%.
With `O=C(O)c1cn(-c2ccc(F)cc2)c2cc(N3CCNCC3)c(F)cc2c1=O` [sarafloxacin] the percent viability was 291% and 182%.

In order of falling percent viability:
1. O=C(OCc1ccccc1)c1ccccc1  459%
2. CN(C)[C@@H]1C(=O)C(C(N)=O)=C(O)[C@@]2(O)C(=O)C3=C(O)c4c(O)ccc(Cl)c4[C@@H](O)[C@H]3C[C@@H]12 [Demeclocycline, Declomycin]  341%
3. CCOc1ccccc1OCC1CNCCO1 (stereo not given) [viloxazine]  334%
4. C=CCN1C(=O)C(CC(C)C)NC1=S (stereo not given) [albutoin]  311%
5. CC(C)Cc1ccc([C@H](C)C(=O)O)cc1 [dexibuprofen]  292%
6. CC[C@H]1OC(=O)[C@H](C)C(=O)[C@H](C)[C@@H](O[C@@H]2O[C@H](C)C[C@H](N(C)C)[C@H]2O)[C@](C)(OC)C[C@@H](C)C(=O)[C@H](C)[C@H]2N(CCCCn3cnc(-c4cccnc4)c3)C(=O)O[C@]12C  289%
7. COc1c(N2C[C@@H]3CCCN[C@@H]3C2)c(F)cc2c(=O)c(C(=O)O)cn(C3CC3)c12 [moxifloxacin]  279%
8. O=C(NC[C@H]1CN(c2ccc(N3CCOCC3=O)cc2)C(=O)O1)c1ccc(Cl)s1 [Rivaroxaban]  279%
9. Nc1ccc(S(=O)(=O)Nc2ccnn2-c2ccccc2)cc1 [sulfaphenazole]  271%
10. Nc1cc(Cl)c(N=C2NCCN2)c(Cl)c1 [apraclonidine]  269%
11. COc1ccc2c(O[C@@H]3C[C@H]4C(=O)N[C@]5(C(=O)NS(=O)(=O)C6CC6)C[C@H]5/C=C\CCCCN(C)C(=O)[C@@H]4C3)cc(-c3nc(C(C)C)cs3)nc2c1C [Simeprevir]  261%
12. CCN(CC)CCOc1ccc2c(c1)C(=O)c1cc(OCCN(CC)CC)ccc1-2  244%
13. N=C(N=C(N)N)N1CCOCC1  226%
14. CN(CCOc1ccc(CC2SC(=O)NC2=O)cc1)c1ccccn1 (stereo not given) [rosiglitazone]  225%
15. CCCCC(C(=O)O)C(=O)N(Nc1ccccc1)c1ccccc1 (stereo not given) [bumadizone]  224%
16. CSc1ccc2c(c1)C(N1CCN(C)CC1)Cc1ccccc1S2 (stereo not given) [metitepine]  222%
17. c1ccc([C@H]2CN3CCSC3=N2)cc1 [levamisole]  211%
18. CCCCCc1ccc(C)cc1O [amylmetacresol]  192%
19. CCC[C@@H]1C[C@@H](C(=O)N[C@@H]([C@H]2O[C@H](SC)[C@H](O)[C@@H](O)[C@H]2O)[C@H](C)Cl)N(C)C1 [clindamycin]  190%
20. O=C(O)CCSCC(=O)O [danosteine]  167%
21. COc1ccc(C(=O)NCc2cccnc2)cc1C(=O)NCc1cccnc1 [Picotamide]  167%
22. NCCC(O)(P(=O)(O)O)P(=O)(O)O [Pamidronate·2Na·5H2O]  151%
23. Cc1cc(-c2ccccc2)nnc1NCCN1CCOCC1 [minaprine]  147%
24. NC(=O)NC1NC(=O)NC1=O (stereo not given)  144%
25. O=[N+]([O-])c1c(Cl)cccc1-c1c[nH]cc1Cl [pyrrolnitrin]  128%
26. CCCCNc1ccc(C(=O)OCCN(C)C)cc1 [tetracaine]  127%
27. NC(=O)c1[nH]nc([C@@H]2O[C@H](CO)[C@@H](O)[C@H]2O)c1O [pirazofurin]  120%
28. Cc1ccc(S(=O)(=O)NC(=O)NC2CCCCC2)cc1N [metahexamide]  118%
29. CCN(CC)CCOC(=O)c1ccc(N)cc1 [procaine]  111%
30. COc1ccc(CNc2nc(N3CCC[C@H]3CO)ncc2C(=O)NCc2ncccn2)cc1Cl [avanafil]  71.4%
31. CO[C@H]1C[C@H](O[C@@H]2/C(C)=C\C[C@@H]3C[C@@H](C[C@]4(C=C[C@H](C)[C@@H](C(C)C)O4)O3)OC(=O)[C@@H]3C=C(C)[C@@H](O)[C@H]4OC/C(=C/C=C\[C@@H]2C)[C@]43O)O[C@@H](C)[C@H]1O[C@H]1C[C@@H](OC)[C@H](NC(C)=O)[C@H](C)O1 [eprinomectin]  59.2%
32. CSc1ccc2c(c1)C(N1CCN(C)CC1)Cc1ccccc1S2 (stereo not given)  25.7%
33. C[n+]1cc2c3c(ccc2c2ccc4cc5c(cc4c21)OCO5)OCO3 [sanguinarium chloride]  13.5%
